Taken from: PubChem BioAssay AID1159584 (Peter MacCallum Cancer Centre, 2016)

Aim: 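Genes that CDH1-null MCF10A cells selectively depend on to survive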 (primary screen)
System: human MCF10A breast epithelial cells, parental and CDH1-null
Reagents: siRNA against human genes
Measured: 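ATP luminescence (CellTiter-Glo) viability per line relative to mean mock wells over all plates, and the ratio of CDH1-null to parental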
Direction: CDH1-null / parental viability ratio: higher = CDH1-null cells survive relatively better than parental
This is a random part of about 18,000 reagents tested. Not all columns of the deposit are shown. Reagent sequences are not shown. Not stated in the record: the amount of reagent, the time to read-out.

RCL1 (RNA terminal phosphate cyclase like 1) — CDH1-null / parental viability ratio: 1.12
PABPC1L2B (poly(A) binding protein cytoplasmic 1 like 2B) — CDH1-null / parental viability ratio: 1.07
RTP1 (receptor transporter protein 1) — CDH1-null / parental viability ratio: 1
KAT6A (lysine acetyltransferase 6A) — CDH1-null / parental viability ratio: 0.81
CHRNB4 (cholinergic receptor nicotinic beta 4 subunit) — CDH1-null / parental viability ratio: 1.19

Continued (2 carried over from the part before).
KAT6A (lysine acetyltransferase 6A) — CDH1-null / parental viability ratio: 0.81
CHRNB4 (cholinergic receptor nicotinic beta 4 subunit) — CDH1-null / parental viability ratio: 1.19
CTSA (cathepsin A) — CDH1-null / parental viability ratio: 1.43
FCF1 (FCF1 rRNA-processing protein) — CDH1-null / parental viability ratio: 1
CRMA (cardiomyocyte maturation associated lncRNA) — CDH1-null / parental viability ratio: 1.25
CYGB (cytoglobin) — CDH1-null / parental viability ratio: 0.94
FGFRL1 (fibroblast growth factor receptor like 1) — CDH1-null / parental viability ratio: 1.21
SLC9A9 — CDH1-null / parental viability ratio: 1.16
WDR76 (WD repeat domain 76) — CDH1-null / parental viability ratio: 0.94
PPDPF — CDH1-null / parental viability ratio: 0.84
LRRC15 (leucine rich repeat containing 15) — CDH1-null / parental viability ratio: 0.86
